# Measurements: PubChem BioAssay AID504467 (National Center for Advancing Translational Sciences (NCATS), 2011)
# Screen size: about 330,000 compounds; about 7,700 (2.3%) were called active. Inconclusive results, whose numbers are uncertain, are shown with a selection of clear calls. Calls follow the shape of the dose curve; as a rule, active = well fitted inhibition curve with a large enough effect; inconclusive = small, poorly fitted or top-dose-only effect, or effect the other way; inactive = flat fitted curve, though single readings scatter. A potency beside an inconclusive call is a rough fit, not a confirmed value.
# Test: qHTS screen for small molecules that inhibit ELG1-dependent DNA repair in human embryonic kidney (HEK293T) cells expressing luciferase-tagged ELG1; also: nearly all actives have a fitted effect of over 55% in size
# Conditions: HEK293T ELG1-luciferase reporter, luminescence, 16 h, DNA damage induced by 5-fluorouridine; series mostly up to 46.1 µM
# Summary of the method: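 DMSO vehicle served as the neutral condition. Each well held 2,000 cells given 5-fluorouridine plus compound; after 16 hr at 37 °C/5% CO2, ONE-Glo was added and luciferase measured 30 min later.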
# Potency is read from the fitted curve at half-maximal effect.
row,SMILES,Potency
1,O=C(CSc1ncnc2c(-c3ccc(Cl)cc3)nsc12)c1ccccc1,"inconclusive: 23.1 µM [activator, single point]"
2,COc1cc(/C=N/NC(=O)c2c(C)nnn2-c2nonc2N)ccc1O,inactive
3,COc1ccc(/C=C/C(=O)NC(=S)N2CCN(c3ccccn3)CC2)cc1,"inconclusive: 23.1 µM [activator, single point]"
4,CC(NC(=O)C1CCN(C(=O)Nc2ccccc2)CC1)c1ccc(Cl)cc1 (stereo not drawn),inactive
5,Cc1c(C(=O)N(C)C(C)c2ccncn2)oc2c(F)cccc12 (stereo not drawn),"inconclusive: 29.1 µM [activator, single point]"
6,Cc1nc(NC(=S)NC(=O)c2cccs2)sc1C(=O)N(C)C,"inconclusive: 20.6 µM [activator, partial curve, poor fit]"
7,CN1C(=O)C2(c3ccccc31)C1CCCC=C1C(C#N)=C(N)C2(C#N)C#N (stereo not drawn),inactive
8,Cc1cc(CNC(=O)CCc2nnc(CCCc3ccccc3)o2)nn1C,"inconclusive: 6.51 µM [inhibitor, single point]"
9,CCN1C(=O)C(Cc2nc3ccccc3c(=O)n2C)c2ccccc21 (stereo not drawn),inactive
10,CCc1cccc2c(C(=O)COC(=O)c3c(C)noc3C)c[nH]c12,inactive
11,Cn1cccc1C(=O)N/N=C/c1c(Cl)cccc1Cl,"inconclusive: 14.6 µM [activator, partial curve]"
12,O=C(NCCCn1ccnc1)C(=O)Nc1ccccc1,"inconclusive: 20.6 µM [activator, single point]"
13,CCCN(CCC)CCNC(=O)c1cc2c(=O)n(CC)c3ccccc3c2s1,"inconclusive: 16.4 µM [activator, partial curve]"
14,O=C(NCc1ccc2c(c1)OCO2)C(=O)NCC1OCCN1S(=O)(=O)c1ccc(Cl)cc1 (stereo not drawn),"inconclusive: 20.6 µM [inhibitor, single point]"
15,CCOc1ccc(CCNC(=O)c2cc3c(C)nccc3[nH]c2=O)cc1OCC,active: 20.6 µM
16,CCCN1CCC(=O)N(CCSc2ccc(C)cc2)CC1,"inconclusive: 23.1 µM [activator, partial curve]"
17,N/C(=N\OC(=O)COc1cc(Cl)c(Cl)cc1Cl)c1ccccn1,"inconclusive: 5.8 µM [activator, partial curve]"
18,Cc1ccc(S(=O)(=O)N2CCCCC2CCNC(=O)C(=O)NC2CCCC2)cc1 (stereo not drawn),"inconclusive: 29.1 µM [inhibitor, single point]"
19,COc1ccc(Cc2nnc(NC(=O)Nc3ccc(C)cc3)s2)cc1OC,"inconclusive: 23.1 µM [activator, partial curve]"
20,Nc1[nH][nH]c(=O)c1N=Nc1ccc2c(c1)OCO2,"inconclusive: 10.3 µM [activator, partial curve]"
21,CCOC(=O)CC1(CC(=O)OCC)NC(=O)c2c(C)sc(C(=O)OCC)c2N1,"inconclusive: 20.6 µM [inhibitor, partial curve, poor fit]"
22,O=C(CN1CCN(S(=O)(=O)c2ccc(F)cc2)CC1)N1CCOCC1,inactive
23,CCOc1nc(N=C(N)N)nc2c(C)cccc12,"inconclusive: 1.3 µM [inhibitor, single point]"

# Grouped by structure: the entries above containing fluorine (2)
row,SMILES,Potency
5,Cc1c(C(=O)N(C)C(C)c2ccncn2)oc2c(F)cccc12 (stereo not drawn),"inconclusive: 29.1 µM [activator, single point]"
22,O=C(CN1CCN(S(=O)(=O)c2ccc(F)cc2)CC1)N1CCOCC1,inactive

# (next part)

row,SMILES,Potency
1,Cc1ccccc1-c1nc2sc(C)c(C)c2c(=O)o1,"inconclusive: 7.3 µM [inhibitor, partial curve, poor fit]"
2,O=C(c1ccccc1)N1CCCOC1c1ccccc1 (stereo not drawn),"inconclusive: 25.9 µM [inhibitor, single point]"
3,O=C1Nc2cc(C(=O)NCCN3CCCCCC3)ccc2S/C1=C\c1ccccc1,"inconclusive: 29.1 µM [activator, partial curve, poor fit]"
4,CCCN=Cc1sc2ccc(OCC)cc2c1O,"inconclusive: 16.4 µM [activator, partial curve]"
5,Cc1cccc(C)c1NC(=O)NNC(=O)c1cc(C(C)(C)C)nn1Cc1ccccc1,inactive
6,CCCCn1nc2cc(C(=O)NCc3ccccc3OC)ccc2c1OCC,"inconclusive: 20.6 µM [inhibitor, single point]"
7,Cc1cc(=O)[nH]c(N/N=C/CCc2ccccc2)n1,"inconclusive: 16.4 µM [activator, partial curve, poor fit]"
8,CCOC(=O)c1c(NC(=S)N2CCOCC2)sc2c1CCN(C(=O)OCC)C2,active: 23.1 µM
9,Cc1ccc(C(=O)CCC(=O)Nc2ccccc2C)cc1C,"inconclusive: 20.6 µM [activator, partial curve, poor fit]"
10,CCOC(=O)C1(CCc2ccccc2)CCN(C(=O)C2CCCO2)CC1 (stereo not drawn),"inconclusive: 16.4 µM [activator, partial curve, poor fit]"
11,Cc1cccc2c1-c1sc(C(=O)Nc3ccccc3N3CCN(C)CC3)cc1CO2,active: 20.6 µM
12,COc1ccc(S(=O)(=O)N2CCCCC2)cc1NC(=O)c1ccc(Cl)nc1,"inconclusive: 20.6 µM [inhibitor, partial curve, poor fit]"
13,Cc1cc(NC(=O)C2CCCO2)ccc1Br (stereo not drawn),inactive
14,O=c1oc2ccccc2cc1-c1csc(Nc2nc3ccc(F)cc3s2)n1,"inconclusive: 29.1 µM [activator, single point]"
15,COc1ccc(C(C(=O)Nc2ccc3c(c2)OCO3)N(C)C(=O)Cc2c[nH]c3ccccc23)cc1 (stereo not drawn),"inconclusive: 18.4 µM [inhibitor, partial curve]"
16,CCOc1ccc(C(=O)NC(=S)Nc2ccc(NC(=O)CC)cc2)cc1[N+](=O)[O-],inactive
17,COC(=O)[C@@H]1C[C@@H]2CC[C@@H](O)C[C@@H]2N1Cc1ccc(OC)cc1,inactive
18,Cc1cc(C(=O)Nc2ccc3c(c2)OCO3)no1,inactive
19,CCc1c(C)nc(SCC(=O)N2CC(C)OC(C)C2)[nH]c1=O (stereo not drawn),"inconclusive: 5.17 µM [activator, single point]"
20,CC(C)(C)c1cc(CN(CCO)CCO)c(O)c(C(C)(C)C)c1,"inconclusive: 23.1 µM [activator, single point]"
21,COc1ccccc1C(=O)O/N=C(\N)c1ccccn1,"inconclusive: 2.91 µM [activator, full curve]"
22,O=C1c2ccccc2C(=O)N1CCCCSc1nnnn1-c1ccccc1,"inconclusive: 16.4 µM [inhibitor, single point]"
23,CCCCNC(=O)c1cc(-c2ccc(F)cc2)on1,"inconclusive: 9.2 µM [activator, partial curve]"

# A draw from above in order of molar mass, smallest number first:
row,SMILES,Potency
4,CCCN=Cc1sc2ccc(OCC)cc2c1O,"inconclusive: 16.4 µM [activator, partial curve]"
20,CC(C)(C)c1cc(CN(CCO)CCO)c(O)c(C(C)(C)C)c1,"inconclusive: 23.1 µM [activator, single point]"
10,CCOC(=O)C1(CCc2ccccc2)CCN(C(=O)C2CCCO2)CC1 (stereo not drawn),"inconclusive: 16.4 µM [activator, partial curve, poor fit]"

# Following part.

row,SMILES,Potency
1,CCN(c1ccccc1)S(=O)(=O)c1ccc(C(=O)Nc2nnc(CSC)o2)cc1,"inconclusive: 8.2 µM [inhibitor, partial curve, poor fit]"
2,Cc1ccc(CCNC(=O)C(C)n2nc(C)c3c(C)n(-c4ccccc4)nc3c2=O)cc1 (stereo not drawn),"inconclusive: 32.6 µM [inhibitor, partial curve, poor fit]"
3,CC(=O)c1ccc(NC(=O)c2ccn(C(=O)OCC(C)C)n2)cc1,"inconclusive: 9.2 µM [activator, partial curve]"
4,CSc1nc(O)c(C(c2ccccc2)c2c(O)nc(SC)[nH]c2=O)c(=O)[nH]1,inactive
5,COc1ccc(-c2csc(NC(=O)CN3C(=O)CCC3=O)n2)c(OC)c1,inactive
6,COc1cc(C)nc(OCCNC(=O)COc2ccc(Cl)cc2Cl)n1,"inconclusive: 25.9 µM [inhibitor, partial curve, poor fit]"
7,CS(=O)(=O)c1cccc(C(=O)Nc2ccc(-c3nc4ccccc4[nH]3)cc2)c1,inactive
8,Cn1c(=O)[nH]c(=O)c2c1nc(Br)n2C/C=N/Nc1ccccc1,"inconclusive: 16.4 µM [inhibitor, single point]"
9,COc1ccc(S(=O)(=O)N2CC(C(=O)O)Oc3ccccc32)cc1 (stereo not drawn),inactive
10,COc1ccc(-n2ncc(Cl)c(Cl)c2=O)cc1,"inconclusive: 29.1 µM [inhibitor, single point]"
11,COc1ccccc1NCCC(=O)OCC(=O)Nc1ccccc1Cl,inactive
12,Cc1cc(C)cc(N=c2c([N+](=O)[O-])nn(-c3ccc(Cl)cc3)n2O)c1,"inconclusive: 29.1 µM [inhibitor, single point]"
13,Cc1ccc(SCC(=O)NCCSC(C)(C)C)cc1,"inconclusive: 14.6 µM [activator, partial curve]"
14,CC(C)Cn1nc(NC(=O)c2cccs2)c2cc3ccccc3nc21,active: 20.6 µM
15,CC(C)CNS(=O)(=O)c1ccc(CCC(=O)N2CCN(c3ccc(F)cc3)CC2)cc1,active: 11.6 µM
16,O=C(CSc1nnnn1C1CC1)Nc1cc(S(=O)(=O)N2CCCC2)ccc1Cl,"inconclusive: 25.9 µM [inhibitor, single point]"
17,O=C(NCCSc1ccc(Br)cc1)c1ccc2nc[nH]c2c1,"inconclusive: 25.9 µM [activator, partial curve, poor fit]"
18,CN(C)/C=C(/C(=O)c1ccc(Cl)cc1)S(=O)(=O)c1ccccc1,"inconclusive: 23.1 µM [activator, partial curve, poor fit]"
19,Nc1nonc1-c1nc2ccccc2n1CC(=O)N1CCCCC1,"inconclusive: 32.6 µM [inhibitor, partial curve, poor fit]"
20,O=C(NCCC1CCCCN1S(=O)(=O)c1ccc(F)cc1)C(=O)Nc1ccccc1F (stereo not drawn),"inconclusive: 18.3 µM [inhibitor, partial curve, poor fit]"
21,CSc1nc(C)cc(OCC(=O)N/N=C/c2ccccc2O)n1,"inconclusive: 6.51 µM [inhibitor, single point]"
22,CCc1ccc(CCC(=O)Nc2ccc(C(C)=O)cc2)o1,"inconclusive: 20.6 µM [activator, partial curve, poor fit]"
